Experimental data: article PMC3572051, “The Budding Yeast Cdc48^Shp1 Complex Promotes Cell Cycle Progression by Positive Regulation of Protein Phosphatase 1 (Glc7)” (PLoS ONE, 2013)
These are yes or no findings as the source states them, for the method shown. In cells and extracts the contact can be indirect. Some binding calls cover weakened binding; strength is not graded here. For some of these results: Where a sequence is shown, tags or fusion partners need not be part of it.

How the values were obtained:
[1] = target: T1, Sds22^3myc (S. cerevisiae) (UniProt P36047); test: co-IP; yeast lysates; immunoprecipitation with anti-myc antibody (overnight, 4°C, protein A sepharose), IP buffer 50 mM Tris/HCl pH 7.5, 100 mM KCl, 5 mM MgCl2, NP-40, 10% glycerol; Western blot; for Sds22^3myc lysates of wild-type and shp1-7 cells
T1 sequence: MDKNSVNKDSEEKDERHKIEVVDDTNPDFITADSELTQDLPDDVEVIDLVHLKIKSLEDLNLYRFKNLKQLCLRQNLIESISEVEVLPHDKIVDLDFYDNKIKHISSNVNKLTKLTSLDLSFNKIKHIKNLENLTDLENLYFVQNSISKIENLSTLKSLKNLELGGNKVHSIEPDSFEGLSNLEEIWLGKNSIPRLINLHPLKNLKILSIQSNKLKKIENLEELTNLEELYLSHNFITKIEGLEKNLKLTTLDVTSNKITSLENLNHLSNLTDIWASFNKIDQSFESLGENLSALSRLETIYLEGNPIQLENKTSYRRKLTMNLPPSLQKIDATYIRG

[2] = target: T2, Glc8^3HA (S. cerevisiae) (UniProt P41818); test: co-IP; yeast lysates; immunoprecipitation with pre-coupled anti-HA antibody (overnight, 4°C), IP buffer 50 mM Tris/HCl pH 7.5, 100 mM KCl, 5 mM MgCl2, NP-40, 10% glycerol; Western blot; for Glc8^3HA lysates of asynchronous or α-factor-arrested wild-type and shp1-7 cells
T2 sequence: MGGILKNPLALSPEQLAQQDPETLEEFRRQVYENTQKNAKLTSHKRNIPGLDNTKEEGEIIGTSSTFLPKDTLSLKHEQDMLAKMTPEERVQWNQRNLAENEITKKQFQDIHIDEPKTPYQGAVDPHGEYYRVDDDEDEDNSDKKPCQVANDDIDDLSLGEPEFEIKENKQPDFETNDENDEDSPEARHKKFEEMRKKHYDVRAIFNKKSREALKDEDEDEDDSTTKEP

[3] = target: Glc7^3myc (S. cerevisiae) (UniProt P32598); test: co-IP; yeast lysates; immunoprecipitation with anti-myc antibody (overnight, 4°C, protein A sepharose), IP buffer 50 mM Tris/HCl pH 7.5, 100 mM KCl, 5 mM MgCl2, NP-40, 10% glycerol; Western blot; for Sds22^3myc lysates of wild-type and shp1-7 cells
[4] = target: T3, Shp1^3HA (S. cerevisiae, UniProt P34223 1-423); test: co-IP; yeast lysates; immunoprecipitation with pre-coupled anti-HA antibody (overnight, 4°C), IP buffer 50 mM Tris/HCl pH 7.5, 100 mM KCl, 5 mM MgCl2, NP-40, 10% glycerol; Western blot; for Glc8^3HA lysates of asynchronous or α-factor-arrested wild-type and shp1-7 cells
T3 construct: Shp1 (Ubx1), S. cerevisiae; source: S. cerevisiae DF5, chromosomal fusion SHP1^3HA::klTRP1, endogenous expression level, in lysate
T3 sequence (looked up): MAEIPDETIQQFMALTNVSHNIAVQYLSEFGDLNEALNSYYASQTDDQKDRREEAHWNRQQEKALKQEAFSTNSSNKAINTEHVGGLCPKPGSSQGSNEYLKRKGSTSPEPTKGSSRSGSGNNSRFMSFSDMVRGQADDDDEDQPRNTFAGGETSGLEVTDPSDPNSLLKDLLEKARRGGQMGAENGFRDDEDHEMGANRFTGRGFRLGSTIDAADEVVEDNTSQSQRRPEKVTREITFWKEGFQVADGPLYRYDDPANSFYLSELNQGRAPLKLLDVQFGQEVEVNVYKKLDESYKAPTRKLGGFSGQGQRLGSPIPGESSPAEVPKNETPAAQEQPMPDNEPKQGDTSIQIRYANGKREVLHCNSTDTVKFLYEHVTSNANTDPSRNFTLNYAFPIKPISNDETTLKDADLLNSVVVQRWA

In the case of “Glc7 (endogenous, untagged) (from UniProt P32598 1-312) (enzyme)”, the binding [1] is reported as “binds” and the binding [2] is reported as “binds”.

B1: Shp1^3HA (protein, UniProt P34223 1-423)
chain: T3 sequence (looked up)
With B1 the binding [3] was “binds”.

B2: Glc7^3myc (enzyme, S. cerevisiae, UniProt P32598 1-312, looked up)
chain: MDSQPVDVDNIIDRLLEVRGSKPGQQVDLEENEIRYLCSKARSIFIKQPILLELEAPIKICGDIHGQYYDLLRLFEYGGFPPESNYLFLGDYVDRGKQSLETICLLLAYKIKYPENFFILRGNHECASINRIYGFYDECKRRYNIKLWKTFTDCFNCLPIAAIIDEKIFCMHGGLSPDLNSMEQIRRVMRPTDIPDVGLLCDLLWSDPDKDIVGWSENDRGVSFTFGPDVVNRFLQKQDMELICRAHQVVEDGYEFFSKRQLVTLFSAPNYCGEFDNAGAMMSVDESLLCSFQILKPAQKSLPRQAGGRKKK
notes: Glc7, catalytic subunit of protein phosphatase 1, S. cerevisiae; carboxyl-terminally tagged at its authentic chromosomal locus; also called PP1 catalytic subunit; source: S. cerevisiae DF5, expressed from the chromosomal GLC7 locus as sole source of Glc7, in lysate; not shown: 3myc, C-terminal, kept
For B2, the binding [4] was “binds”.
